# Data from the supplement of paper PMC8728848.
# This is one part of the list.
# B1: FimA (Actinomyces oris) (protein)
# chain: MHHHHHHSSGVDLGTENLYFQSNAETPNYGNIKTDATGSLVIHKHLTGGGKDIGTPTGTAQNADDKGPAVEGVVFTAYPITDINLKDPAGWDTISNLSRTGVPDSACANPAAPTLGAHQFGTPKVSPATTKEGLATITEMPVQAYLVCETTTPGDIVQKAKPFVVTIPHPNTAAGADGQWIYDVNVYPKNEAIDVDKTIQAQKLNGYGVGSLIKFPVESTAPTLDAKSFYKYFQLKDTLDERLSEVTATDVSLEGTPLQPTDYKVETKQQTVTVTFTAEGLKKIKAAPGKKVSAVFQGKVTKAGNGAITNRAQVISDTLYAEQPPTPETPPTDPENPPTSDEVISRWGDLSIKKVDTHQQGQTKAGLQGAQFQLYKAKNAYANTCSNEKEGAPIAINGQTTLTTDAQGAIDIKGLFISDSIDGADRDNQVNAMERCYVLVETKAPAGYVLPAGNGAATPVKVKAGEETTDNVTVENTKQSVPGLPLTG
# Columns and labels:
# Assay in all cases: glycan array binding signal (z-score within array); higher = stronger binding
# Settings in all cases: glycan notation: IUPAC condensed, linker removed
# [1] = target: Neu5Ac(a2-6)Gal(b1-4)GlcNAc(b1-2)Man(a1-3)[Man(a1-6)]Man(b1-4)GlcNAc(b1-4)GlcNAc
# How it was run: (§1)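 Arrays were curated from the Consortium for Functional Glycomics database, 3228 in total, and kept only where the protein sequence was available. Binding is expressed as a within-array Z-score. This score was averaged across arrays of the same protein sequence at different concentrations or buffers and across linkers, and negative values can be read as non-binding.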
# [2] = target: Neu5Ac(a2-6)Gal(b1-4)GlcNAc(b1-2)Man(a1-3)[Neu5Ac(a2-3)Gal(b1-4)GlcNAc(b1-2)Man(a1-6)]Man(b1-4)GlcNAc(b1-4)GlcNAc
# How it was run: as §1
# [3] = target: Neu5Ac(a2-6)Gal(b1-4)GlcNAc(b1-2)Man(a1-3)[Neu5Ac(a2-6)Gal(b1-4)GlcNAc(b1-2)Man(a1-6)]Man(b1-4)GlcNAc(b1-4)GlcNAc
# How it was run: as §1
# [4] = target: Neu5Ac(a2-6)Gal(b1-4)GlcNAc(b1-2)Man(a1-3)[Neu5Ac(a2-6)Gal(b1-4)GlcNAc(b1-2)Man(a1-6)]Man(b1-4)GlcNAc(b1-4)[Fuc(a1-6)]GlcNAc
# How it was run: as §1
# [5] = target: Neu5Ac(a2-6)Gal(b1-4)GlcNAc(b1-2)Man(a1-6)Man(b1-4)GlcNAc(b1-4)GlcNAc
# How it was run: as §1
# [6] = target: Neu5Ac(a2-6)Gal(b1-4)GlcNAc(b1-2)Man(a1-6)[Gal(b1-4)GlcNAc(b1-2)Man(a1-3)]Man(b1-4)GlcNAc(b1-4)GlcNAc
# How it was run: as §1
# [7] = target: Neu5Ac(a2-6)Gal(b1-4)GlcNAc(b1-2)Man(a1-6)[GlcNAc(b1-2)Man(a1-3)]Man(b1-4)GlcNAc(b1-4)GlcNAc
# How it was run: as §1
# [8] = target: Neu5Ac(a2-6)Gal(b1-4)GlcNAc(b1-2)Man(a1-6)[Man(a1-3)]Man(b1-4)GlcNAc(b1-4)GlcNAc
# How it was run: as §1
# [9] = target: Neu5Ac(a2-6)Gal(b1-4)GlcNAc(b1-2)[Neu5Ac(a2-6)Gal(b1-4)GlcNAc(b1-4)]Man(a1-3)[GlcNAc(b1-4)][Neu5Ac(a2-6)Gal(b1-4)GlcNAc(b1-2)[Neu5Ac(a2-6)Gal(b1-4)GlcNAc(b1-6)]Man(a1-6)]Man(b1-4)GlcNAc(b1-4)GlcNAc
# How it was run: as §1
# [10] = target: Neu5Ac(a2-6)Gal(b1-4)GlcNAc(b1-2)[Neu5Ac(a2-6)Gal(b1-4)GlcNAc(b1-4)]Man(a1-3)[GlcNAc(b1-4)][Neu5Ac(a2-6)Gal(b1-4)GlcNAc(b1-4)Man(a1-6)]Man(b1-4)GlcNAc(b1-4)GlcNAc
# How it was run: as §1
# [11] = target: Neu5Ac(a2-6)Gal(b1-4)GlcNAc(b1-2)[Neu5Ac(a2-6)Gal(b1-4)GlcNAc(b1-6)]Man(a1-6)[Neu5Ac(a2-6)Gal(b1-4)GlcNAc(b1-2)Man(a1-3)][GlcNAc(b1-4)]Man(b1-4)GlcNAc(b1-4)GlcNAc
# How it was run: as §1
# [12] = target: Neu5Ac(a2-6)Gal(b1-4)GlcNAc(b1-3)Gal(b1-3)GlcNAc
# How it was run: as §1
# [13] = target: Neu5Ac(a2-6)Gal(b1-4)GlcNAc(b1-3)Gal(b1-4)GlcNAc
# How it was run: as §1
# [14] = target: Neu5Ac(a2-6)Gal(b1-4)GlcNAc(b1-3)Gal(b1-4)GlcNAc(b1-2)Man(a1-3)[Neu5Ac(a2-6)Gal(b1-4)GlcNAc(b1-3)Gal(b1-4)GlcNAc(b1-2)Man(a1-6)]GalNAc
# How it was run: as §1
# [15] = target: Neu5Ac(a2-6)Gal(b1-4)GlcNAc(b1-3)Gal(b1-4)GlcNAc(b1-3)Gal(b1-4)GlcNAc
# How it was run: as §1
# [16] = target: Neu5Ac(a2-6)Gal(b1-4)GlcNAc(b1-3)Gal(b1-4)GlcNAc(b1-3)Gal(b1-4)GlcNAc(b1-2)Man(a1-3)[Neu5Ac(a2-6)Gal(b1-4)GlcNAc(b1-3)Gal(b1-4)GlcNAc(b1-3)Gal(b1-4)GlcNAc(b1-2)Man(a1-6)]GalNAc
# How it was run: as §1
# [17] = target: Neu5Ac(a2-6)Gal(b1-4)GlcNAc(b1-3)Gal(b1-4)GlcNAc(b1-3)GalNAc
# How it was run: as §1
# [18] = target: Neu5Ac(a2-6)Gal(b1-4)GlcNAc(b1-3)Gal(b1-4)GlcNAc(b1-3)[Neu5Ac(a2-6)Gal(b1-4)GlcNAc(b1-3)Gal(b1-4)GlcNAc(b1-6)]GalNAc
# How it was run: as §1
# [19] = target: Neu5Ac(a2-6)Gal(b1-4)GlcNAc(b1-3)Gal(b1-4)GlcNAc(b1-6)[Gal(b1-3)]GalNAc
# How it was run: as §1
# [20] = target: Neu5Ac(a2-6)Gal(b1-4)GlcNAc(b1-3)Gal(b1-4)[Fuc(a1-3)]GlcNAc(b1-3)Gal(b1-4)[Fuc(a1-3)]GlcNAc
# How it was run: as §1
# [21] = target: Neu5Ac(a2-6)Gal(b1-4)GlcNAc(b1-3)GalNAc
# How it was run: as §1
# [22] = target: Neu5Ac(a2-6)Gal(b1-4)GlcNAc(b1-3)[Neu5Ac(a2-6)Gal(b1-4)GlcNAc(b1-6)]GalNAc
# How it was run: as §1
# [23] = target: Neu5Ac(a2-6)Gal(b1-4)GlcNAc(b1-6)GalNAc
# How it was run: as §1
# [24] = target: Neu5Ac(a2-6)Gal(b1-4)GlcNAc(b1-6)[Gal(b1-3)GlcNAc(b1-3)]Gal(b1-4)Glc
# How it was run: as §1
# [25] = target: Neu5Ac(a2-6)Gal(b1-4)GlcNAc(b1-6)[Gal(b1-3)]GalNAc
# How it was run: as §1
# [26] = target: Neu5Ac(a2-6)Gal(b1-4)GlcNAc6S
# How it was run: as §1
# [27] = target: Neu5Ac(a2-6)GalNAc
# How it was run: as §1
# [28] = target: Neu5Ac(a2-6)GalNAc(b1-4)GlcNAc
# How it was run: as §1
# [29] = target: Neu5Ac(a2-6)GalNAc(b1-4)GlcNAc6S
# How it was run: as §1
# [30] = target: Neu5Ac(a2-6)GlcNAc(b1-4)GlcNAc
# How it was run: as §1
# [31] = target: Neu5Ac(a2-6)GlcNAc(b1-4)GlcNAc(b1-4)GlcNAc
# How it was run: as §1
binder,measurement,setting,value
B1,glycan array binding signal (z-score),[1],-0.666
same,glycan array binding signal (z-score),[2],-0.446
same,glycan array binding signal (z-score),[3],0.242
same,glycan array binding signal (z-score),[4],-0.373
same,glycan array binding signal (z-score),[5],-0.411
same,glycan array binding signal (z-score),[6],-0.393
same,glycan array binding signal (z-score),[7],0.37
same,glycan array binding signal (z-score),[8],0.305
same,glycan array binding signal (z-score),[9],0.67
same,glycan array binding signal (z-score),[10],0.805
same,glycan array binding signal (z-score),[11],0.162
same,glycan array binding signal (z-score),[12],-0.578
same,glycan array binding signal (z-score),[13],-0.805
same,glycan array binding signal (z-score),[14],0.384
same,glycan array binding signal (z-score),[15],-0.393
same,glycan array binding signal (z-score),[16],0.337
same,glycan array binding signal (z-score),[17],-0.794
same,glycan array binding signal (z-score),[18],-0.542
same,glycan array binding signal (z-score),[19],-0.595
same,glycan array binding signal (z-score),[20],0.922
same,glycan array binding signal (z-score),[21],1.08
same,glycan array binding signal (z-score),[22],-0.508
same,glycan array binding signal (z-score),[23],0.21
same,glycan array binding signal (z-score),[24],-0.606
same,glycan array binding signal (z-score),[25],0.39
same,glycan array binding signal (z-score),[26],0.065
same,glycan array binding signal (z-score),[27],-0.296
same,glycan array binding signal (z-score),[28],-0.397
same,glycan array binding signal (z-score),[29],-0.147
same,glycan array binding signal (z-score),[30],0.737
same,glycan array binding signal (z-score),[31],1.38

# As a short view, part of the list above.
binder,measurement,setting,value
B1,glycan array binding signal (z-score),[24],-0.606
same,glycan array binding signal (z-score),[25],0.39
